Data as given in PubChem BioAssay AID212 (DTP/NCI, 2004).
The list shows only some results of the screen, not a fair sample: it is rich in T/C values a quarter to a half above the control, in often repeated tests (any T/C) and in doses without a T/C. Further doses and runs are listed elsewhere. T/C: endpoint of the treated group in % of that of the vehicle group. Schedule codes are those of the source, taken here to give the interval after Q, in days (D) or hours (H), and the number of doses after X. Some T/C values are followed by the survivors on the day toxicity was checked, most often the fifth; where none is given, no animal had died by that day. Some entries hold several experiments; the values are given in rising order. Additions like (4×) say how often a value occurs here. Some doses have a count of surviving animals in place of a T/C: the source files T/C as zero there, which appears to mark a toxic dose or a test without result, not a measured value. Survivors were counted at the toxicity check, usually on the fifth day, unless a day is given; later deaths do not show. Where survival is the endpoint, the PubChem record calls one and a half times the control and up active, and a quarter to a half above the control has no call in these data; cut-offs in other NCI protocols can differ.

Test system: BDF1 mice, colon carcinoma 38 sc, T/C %
Test: NCI In Vivo Anticancer Drug Screen. Data for tumor model Colon Carcinoma 38 (subcutaneous) in B6D2F1 (BDF1) mice
Outline: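 Compound antitumor activity was assessed in mice carrying transplantable tumors. Survival or tumor size was recorded, and each value is the treated-group measurement divided by that of the vehicle-treated control group.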

With `O=c1[nH]cc(F)c(=O)[nH]1` as the molecule, how does the T/C (T/C endpoint: median survival time, dose: 21.6 mg/kg/injection, schedule: Q04DX004 (ip), vehicle: alkali diluted with saline, evaluated on day 18, higher T/C = longer survival) read?
Its T/C is 140 % of control.

What about the T/C (T/C endpoint: median survival time, dose: 21.6 mg/kg/injection, schedule: Q04DX004 (ip), vehicle: alkali diluted with saline, evaluated on day 93, higher T/C = longer survival) of the same molecule?
Its T/C is 139 % of control.

What about the T/C (T/C endpoint: median survival time, dose: 27.0 mg/kg/injection, schedule: Q04DX002 (ip), vehicle: saline, higher T/C = longer survival) of the same molecule?
Its T/C is 128 % of control [9 of 10 alive on day 100].

What about the T/C (T/C endpoint: median survival time, dose: 36.0 mg/kg/injection, schedule: Q04DX004 (ip), vehicle: alkali diluted with saline, evaluated on day 18, higher T/C = longer survival) of the same molecule?
Its T/C is 132 % of control.

What about the T/C (T/C endpoint: median survival time, dose: 36.0 mg/kg/injection, schedule: Q04DX004 (ip), vehicle: alkali diluted with saline, evaluated on day 93, higher T/C = longer survival) of the same molecule?
Its T/C is 129 % of control.

What about the T/C (T/C endpoint: median survival time, dose: 45.0 mg/kg/injection, schedule: Q04DX002 (ip), vehicle: saline, higher T/C = longer survival) of the same molecule?
Its T/C is 142 % of control [9 of 10 alive on day 100].

What about the survivor count (T/C endpoint: median survival time, dose: 54.4 mg/kg/injection, schedule: Q01DX010 (ip), vehicle: saline, higher T/C = longer survival) of the same molecule?
The survivor count was 0 of 9 on day 95.

And the T/C (T/C endpoint: median survival time, dose: 60.0 mg/kg/injection, schedule: Q04DX003 (ip), vehicle: saline, higher T/C = longer survival)?
The T/C was 137 % of control.

And the T/C (T/C endpoint: median survival time, dose: 68.0 mg/kg/injection, schedule: Q04DX004 (ip), vehicle: saline, higher T/C = longer survival)?
The T/C was 132 % of control.

And the survivor count (T/C endpoint: median survival time, dose: 100.0 mg/kg/injection, schedule: Q04DX003 (ip), vehicle: saline, higher T/C = longer survival)?
The survivor count was 0 of 10 on day 33.

What about the survivor count (T/C endpoint: median survival time, dose: 100.0 mg/kg/injection, schedule: Q04DX004 (ip), vehicle: alkali diluted with saline, higher T/C = longer survival) of the same molecule?
The survivor count was 0 of 8 on day 93.

And the survivor count (T/C endpoint: median survival time, dose: 105.0 mg/kg/injection, schedule: Q07DX003 (iv), vehicle: saline, higher T/C = longer survival)?
Its survivor count is 5 of 10 on day 71.

What about the survivor count (T/C endpoint: median survival time, dose: 110.0 mg/kg/injection, schedule: Q04DX004 (ip), vehicle: saline, higher T/C = longer survival) of the same molecule?
Its survivor count is 2 of 10 on day 90.

And the survivor count (T/C endpoint: median survival time, dose: 125.0 mg/kg/injection, schedule: Q04DX002 (ip), vehicle: saline, higher T/C = longer survival)?
Its survivor count is 2 of 10 on day 100.

What about the survivor count (T/C endpoint: median survival time, dose: 150.0 mg/kg/injection, schedule: Q07DX003 (iv), vehicle: saline, higher T/C = longer survival) of the same molecule?
Its survivor count is 0 of 10 on day 71.

What about the survivor count (T/C endpoint: median survival time, dose: 167.0 mg/kg/injection, schedule: Q04DX004 (ip), vehicle: alkali diluted with saline, higher T/C = longer survival) of the same molecule?
Its survivor count is 0 of 8 on day 93.

And the T/C (T/C endpoint: median tumor weight (est.), dose: 8.7 mg/kg/injection, schedule: Q07DX002 (ip), vehicle: saline, evaluated on day 20, higher T/C = larger tumour)?
The T/C was 46, 77, 80, 81, 85 [9 of 10 alive on day 20], 93 % of control.

And the T/C (T/C endpoint: median tumor weight (est.), dose: 17.5 mg/kg/injection, schedule: Q07DX002 (ip), vehicle: saline, evaluated on day 20, higher T/C = larger tumour)?
The T/C was 76, 96 (2×), 107, 107 [9 of 10 alive on day 20], 123 % of control.

And the T/C (T/C endpoint: median tumor weight (est.), dose: 35.0 mg/kg/injection, schedule: Q07DX002 (ip), vehicle: saline, evaluated on day 20, higher T/C = larger tumour)?
The T/C was 30, 41, 49, 58, 60, 66, 73, 82, 89 % of control.

What about the T/C (T/C endpoint: median tumor weight (est.), dose: 70.0 mg/kg/injection, schedule: Q07DX002 (ip), vehicle: saline, evaluated on day 20, higher T/C = larger tumour) of the same molecule?
Its T/C is 1, 5 [8 of 10 alive on day 20], 9, 31, 34, 51 (2×), 88, 92 % of control.

What about the T/C (T/C endpoint: median tumor weight (est.), dose: 140.0 mg/kg/injection, schedule: Q07DX002 (ip), vehicle: saline, evaluated on day 20, higher T/C = larger tumour) of the same molecule?
Its T/C is 1, 2, 2 [8 of 10 alive on day 20], 8 % of control (2×).

What about the survivor count (T/C endpoint: median tumor weight (est.), dose: 140.0 mg/kg/injection, schedule: Q07DX002 (ip), vehicle: saline, higher T/C = larger tumour) of the same molecule?
The survivor count was 4 of 10 on day 20, 5 of 10 on day 20, 6 of 10 on day 20.

Which T/C (T/C endpoint: median tumor weight (est.), dose: 0.12 mg/kg/injection, schedule: Q07DX002 (ip), vehicle: saline, evaluated on day 20, higher T/C = larger tumour) does the source give for `CNC(=O)/C=C/C1=CN2C(=O)c3ccc(C)c(O)c3NC(OC)C2C1` (centres undefined) here?
Its T/C is 128 % of control.

What about the survivor count (T/C endpoint: median tumor weight (est.), dose: 1.0 mg/kg/injection, schedule: Q07DX002 (ip), vehicle: saline, higher T/C = larger tumour) of the same molecule?
The survivor count was 2 of 10 on day 20.

Which T/C (T/C endpoint: median tumor weight (est.), dose: 3.12 mg/kg/injection, schedule: Q07DX002 (ip), vehicle: water, evaluated on day 20, higher T/C = larger tumour) does the source give for `Oc1cc2c3c(c1)c1cc4c(cc1c[n+]3CC2)OCO4` here?
The T/C was 127 % of control.

And the T/C (T/C endpoint: median tumor weight (est.), dose: 25.0 mg/kg/injection, schedule: Q07DX002 (ip), vehicle: water, evaluated on day 20, higher T/C = larger tumour)?
Its T/C is 125 % of control.

How did the T/C (T/C endpoint: median tumor weight (est.), dose: 50.0 mg/kg/injection, schedule: Q07DX002 (ip), vehicle: saline, evaluated on day 20, higher T/C = larger tumour) turn out when `CCCCCC#CC1OC12CCCCC2` (centres undefined) was run?
Its T/C is 125 % of control.

What about the survivor count (T/C endpoint: median tumor weight (est.), dose: 400.0 mg/kg/injection, schedule: Q07DX002 (ip), vehicle: saline with Tween-80, higher T/C = larger tumour) of the same molecule?
The survivor count was 6 of 10 on day 20.

What about the survivor count (T/C endpoint: median tumor weight (est.), dose: 400.0 mg/kg/injection, schedule: Q07DX002 (ip), vehicle: saline, higher T/C = larger tumour) of the same molecule?
The survivor count was 5 of 10 on day 20.
